Laboratory results: PubChem BioAssay AID1259254 (NCATS, 2017)
Assay: 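Finding genes that stop cells copying their DNA twice in one cycle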 (primary screen). System: human HCT116 colorectal cancer cells. Reagent: single siRNA against human genes. Time to read-out: 3 days. Measured: 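Nuclei stained with Hoechst and imaged; cell-cycle phase assigned by DNA content; G2 share scaled per plate, non-targeting siRNA 0%, GMNN siRNA 100%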. Direction: G2 robust z-score and G2 cells, % of GMNN control: higher = more G2 cells, more excess DNA replication. Rule for the call: 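An siRNA counts as active if its G2 robust z-score lies at least 5 MADs above the screen median; here such calls match roughly 38% of GMNN control or more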.
Shown is one part, drawn at random, of about 59,000 deposited reagents. In the full data, about 1,550 (2.6%) were called active. 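G2 share is only a proxy for re-replication; each gene was hit by three separate siRNAs, and active genes were retested.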 Reagents against one gene are numbered here. Not all columns of the deposit are shown. Not stated in the record: the amount of reagent.

no.	gene knocked down	reagent	G2 robust z-score	G2 cells, % of GMNN control	outcome
1	TMSB15A (thymosin beta 15A)	1	0.362	5.51	inactive
2	TMSB15A (thymosin beta 15A)	2	2.36	19.6	inactive
3	TMSB15A (thymosin beta 15A)	3	1.78	15.5	inactive
4	PEMT (phosphatidylethanolamine N-methyltransferase)	1	-0.155	1.88	inactive
5	PEMT (phosphatidylethanolamine N-methyltransferase)	2	-1.15	-5.14	inactive
6	PEMT (phosphatidylethanolamine N-methyltransferase)	3	0.441	6.07	inactive
7	HUWE1	1	-0.819	-2.79	inactive
8	HUWE1	2	-1.55	-7.96	inactive
9	HUWE1	3	-0.249	1.22	inactive
10	VENTX (VENT homeobox)	1	-0.771	-2.46	inactive
11	VENTX (VENT homeobox)	2	-1.37	-6.67	inactive
12	VENTX (VENT homeobox)	3	-0.304	0.826	inactive
13	NCAPH (non-SMC condensin I complex subunit H)	1	-0.618	-1.38	inactive
14	NCAPH (non-SMC condensin I complex subunit H)	2	3.59	28.3	inactive
15	NCAPH (non-SMC condensin I complex subunit H)	3	-0.571	-1.05	inactive
16	HHATL (hedgehog acyltransferase like)	1	-0.694	-1.92	inactive
17	HHATL (hedgehog acyltransferase like)	2	-1.36	-6.58	inactive
18	HHATL (hedgehog acyltransferase like)	3	0.042	3.26	inactive
19	LAGE3 (L antigen family member 3)	1	-0.581	-1.12	inactive
20	LAGE3 (L antigen family member 3)	2	3.04	24.3	inactive
21	LAGE3 (L antigen family member 3)	3	1.78	15.5	inactive
22	ASB11 (ankyrin repeat and SOCS box containing 11)	1	0.96	9.72	inactive
23	ASB11 (ankyrin repeat and SOCS box containing 11)	2	-0.925	-3.54	inactive
24	ASB11 (ankyrin repeat and SOCS box containing 11)	3	-0.635	-1.5	inactive
25	CD6 (CD6 molecule)	1	1.31	12.2	inactive
26	CD6 (CD6 molecule)	2	4.42	34.1	inactive
27	CD6 (CD6 molecule)	3	3.86	30.1	inactive
28	LCP2 (lymphocyte cytosolic protein 2)	1	3.56	28	inactive
29	LCP2 (lymphocyte cytosolic protein 2)	2	-1.15	-5.11	inactive
30	LCP2 (lymphocyte cytosolic protein 2)	3	-0.361	0.425	inactive

Only “G2 robust z-score” (5 entries from above):
TMSB15A (thymosin beta 15A) #1	0.362
TMSB15A (thymosin beta 15A) #2	2.36
TMSB15A (thymosin beta 15A) #3	1.78
PEMT (phosphatidylethanolamine N-methyltransferase) #1	-0.155
PEMT (phosphatidylethanolamine N-methyltransferase) #2	-1.15
